Measured values as given in the supplement of paper PMC11732987, “Enantioselective OTUD7B fragment discovery through chemoproteomics screening and high-throughput optimisation” (Communications Chemistry, 2025).
Some of the results follow. The data scatter; read single values as rough.

Sequences of proteins named here, by UniProt entry; tags and fusion partners are left off. A change or cut given only in a name is not applied to a line headed by its entry. Residues count along the entry.
UniProt Q02487, whole entry, looked up: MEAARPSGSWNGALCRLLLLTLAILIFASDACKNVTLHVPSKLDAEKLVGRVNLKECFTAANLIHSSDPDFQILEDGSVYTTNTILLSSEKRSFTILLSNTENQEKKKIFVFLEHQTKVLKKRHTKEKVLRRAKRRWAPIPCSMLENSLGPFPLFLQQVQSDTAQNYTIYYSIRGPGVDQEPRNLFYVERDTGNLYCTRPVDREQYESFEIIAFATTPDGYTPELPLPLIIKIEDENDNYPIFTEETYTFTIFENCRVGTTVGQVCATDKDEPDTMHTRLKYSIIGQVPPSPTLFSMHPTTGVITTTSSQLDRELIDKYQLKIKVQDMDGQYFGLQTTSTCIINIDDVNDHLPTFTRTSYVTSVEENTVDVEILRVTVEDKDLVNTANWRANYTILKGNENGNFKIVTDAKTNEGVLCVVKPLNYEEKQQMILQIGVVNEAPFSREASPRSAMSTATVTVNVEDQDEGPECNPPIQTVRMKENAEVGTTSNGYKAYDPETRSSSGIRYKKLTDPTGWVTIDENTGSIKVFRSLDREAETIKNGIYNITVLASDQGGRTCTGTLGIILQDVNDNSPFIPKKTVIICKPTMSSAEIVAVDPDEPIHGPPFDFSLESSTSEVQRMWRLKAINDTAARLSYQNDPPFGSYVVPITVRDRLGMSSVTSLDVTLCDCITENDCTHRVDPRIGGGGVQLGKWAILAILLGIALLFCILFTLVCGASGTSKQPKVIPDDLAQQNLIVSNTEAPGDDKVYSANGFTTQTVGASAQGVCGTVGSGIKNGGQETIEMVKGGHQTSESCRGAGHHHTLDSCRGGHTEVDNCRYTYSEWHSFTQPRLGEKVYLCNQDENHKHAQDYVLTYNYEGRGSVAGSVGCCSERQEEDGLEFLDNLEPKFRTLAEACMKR
UniProt P15924: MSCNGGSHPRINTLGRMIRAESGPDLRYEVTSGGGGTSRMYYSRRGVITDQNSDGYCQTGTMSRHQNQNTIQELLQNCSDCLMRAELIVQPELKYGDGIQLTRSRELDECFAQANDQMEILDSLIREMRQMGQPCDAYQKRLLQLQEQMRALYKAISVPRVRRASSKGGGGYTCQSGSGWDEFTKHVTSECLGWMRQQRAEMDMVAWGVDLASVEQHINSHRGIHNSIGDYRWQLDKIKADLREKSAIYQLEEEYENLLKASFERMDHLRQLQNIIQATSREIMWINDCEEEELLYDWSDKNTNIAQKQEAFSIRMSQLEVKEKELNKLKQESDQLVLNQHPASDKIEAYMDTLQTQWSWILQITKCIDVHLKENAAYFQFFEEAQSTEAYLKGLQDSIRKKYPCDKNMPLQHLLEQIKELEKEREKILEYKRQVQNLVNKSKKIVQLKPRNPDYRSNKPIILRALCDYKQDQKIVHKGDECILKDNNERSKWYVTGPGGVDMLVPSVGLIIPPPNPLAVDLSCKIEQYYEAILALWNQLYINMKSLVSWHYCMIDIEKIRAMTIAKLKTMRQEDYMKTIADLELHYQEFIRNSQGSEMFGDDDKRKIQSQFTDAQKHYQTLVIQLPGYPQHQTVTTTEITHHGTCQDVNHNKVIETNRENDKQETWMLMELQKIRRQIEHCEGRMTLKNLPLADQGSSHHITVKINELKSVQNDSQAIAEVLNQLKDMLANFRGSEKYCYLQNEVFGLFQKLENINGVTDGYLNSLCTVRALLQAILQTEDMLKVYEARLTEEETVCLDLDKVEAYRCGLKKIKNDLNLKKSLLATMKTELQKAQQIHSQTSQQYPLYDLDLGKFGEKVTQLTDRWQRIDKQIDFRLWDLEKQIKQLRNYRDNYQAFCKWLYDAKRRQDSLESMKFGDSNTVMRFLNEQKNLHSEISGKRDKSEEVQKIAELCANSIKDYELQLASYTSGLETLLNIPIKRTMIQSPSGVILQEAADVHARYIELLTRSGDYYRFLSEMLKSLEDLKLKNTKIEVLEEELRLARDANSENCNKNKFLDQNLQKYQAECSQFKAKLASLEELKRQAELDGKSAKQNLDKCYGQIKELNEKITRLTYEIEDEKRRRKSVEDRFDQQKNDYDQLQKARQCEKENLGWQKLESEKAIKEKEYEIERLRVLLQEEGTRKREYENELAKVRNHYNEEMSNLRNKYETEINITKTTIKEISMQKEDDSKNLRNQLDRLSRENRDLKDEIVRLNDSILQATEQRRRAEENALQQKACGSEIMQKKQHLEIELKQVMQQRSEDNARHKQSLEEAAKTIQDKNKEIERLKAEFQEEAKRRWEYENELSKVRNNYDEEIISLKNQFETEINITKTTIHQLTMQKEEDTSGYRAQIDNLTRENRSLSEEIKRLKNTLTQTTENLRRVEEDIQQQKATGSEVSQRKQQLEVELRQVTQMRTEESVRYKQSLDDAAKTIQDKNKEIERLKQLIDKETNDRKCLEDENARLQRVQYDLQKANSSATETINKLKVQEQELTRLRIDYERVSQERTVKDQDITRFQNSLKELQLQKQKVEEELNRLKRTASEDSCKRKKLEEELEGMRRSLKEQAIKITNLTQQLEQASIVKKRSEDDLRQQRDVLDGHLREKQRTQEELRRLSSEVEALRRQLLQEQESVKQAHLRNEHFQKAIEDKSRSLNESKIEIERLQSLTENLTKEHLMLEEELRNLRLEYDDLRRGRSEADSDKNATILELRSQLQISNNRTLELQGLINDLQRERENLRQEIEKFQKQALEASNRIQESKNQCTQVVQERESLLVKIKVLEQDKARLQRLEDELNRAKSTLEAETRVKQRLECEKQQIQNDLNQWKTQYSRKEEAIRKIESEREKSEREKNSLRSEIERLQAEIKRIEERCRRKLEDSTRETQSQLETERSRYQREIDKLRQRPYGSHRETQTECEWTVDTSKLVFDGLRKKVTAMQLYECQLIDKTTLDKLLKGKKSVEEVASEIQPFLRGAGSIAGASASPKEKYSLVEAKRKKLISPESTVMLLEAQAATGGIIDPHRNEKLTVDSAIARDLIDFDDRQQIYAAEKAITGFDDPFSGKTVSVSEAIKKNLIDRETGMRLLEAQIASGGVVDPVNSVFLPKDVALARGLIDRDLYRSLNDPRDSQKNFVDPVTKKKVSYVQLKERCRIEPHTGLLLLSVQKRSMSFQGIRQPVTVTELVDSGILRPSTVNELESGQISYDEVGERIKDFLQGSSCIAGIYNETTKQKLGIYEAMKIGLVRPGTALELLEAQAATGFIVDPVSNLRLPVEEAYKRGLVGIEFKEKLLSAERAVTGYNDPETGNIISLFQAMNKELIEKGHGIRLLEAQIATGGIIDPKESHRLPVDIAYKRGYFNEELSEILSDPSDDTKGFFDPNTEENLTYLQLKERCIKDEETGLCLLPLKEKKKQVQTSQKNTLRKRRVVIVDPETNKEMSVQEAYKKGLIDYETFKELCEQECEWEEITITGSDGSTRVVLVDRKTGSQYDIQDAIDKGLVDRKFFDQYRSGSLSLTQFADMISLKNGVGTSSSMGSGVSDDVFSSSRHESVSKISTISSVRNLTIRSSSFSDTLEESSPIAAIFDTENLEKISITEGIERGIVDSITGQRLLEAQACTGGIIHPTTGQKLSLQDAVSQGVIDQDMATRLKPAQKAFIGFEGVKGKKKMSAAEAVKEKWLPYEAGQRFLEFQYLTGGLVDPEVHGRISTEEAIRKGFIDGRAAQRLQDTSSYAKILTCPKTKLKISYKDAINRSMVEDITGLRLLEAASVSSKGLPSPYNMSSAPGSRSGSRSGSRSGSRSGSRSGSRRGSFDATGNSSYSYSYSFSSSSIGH
UniProt Q14152, whole entry, looked up: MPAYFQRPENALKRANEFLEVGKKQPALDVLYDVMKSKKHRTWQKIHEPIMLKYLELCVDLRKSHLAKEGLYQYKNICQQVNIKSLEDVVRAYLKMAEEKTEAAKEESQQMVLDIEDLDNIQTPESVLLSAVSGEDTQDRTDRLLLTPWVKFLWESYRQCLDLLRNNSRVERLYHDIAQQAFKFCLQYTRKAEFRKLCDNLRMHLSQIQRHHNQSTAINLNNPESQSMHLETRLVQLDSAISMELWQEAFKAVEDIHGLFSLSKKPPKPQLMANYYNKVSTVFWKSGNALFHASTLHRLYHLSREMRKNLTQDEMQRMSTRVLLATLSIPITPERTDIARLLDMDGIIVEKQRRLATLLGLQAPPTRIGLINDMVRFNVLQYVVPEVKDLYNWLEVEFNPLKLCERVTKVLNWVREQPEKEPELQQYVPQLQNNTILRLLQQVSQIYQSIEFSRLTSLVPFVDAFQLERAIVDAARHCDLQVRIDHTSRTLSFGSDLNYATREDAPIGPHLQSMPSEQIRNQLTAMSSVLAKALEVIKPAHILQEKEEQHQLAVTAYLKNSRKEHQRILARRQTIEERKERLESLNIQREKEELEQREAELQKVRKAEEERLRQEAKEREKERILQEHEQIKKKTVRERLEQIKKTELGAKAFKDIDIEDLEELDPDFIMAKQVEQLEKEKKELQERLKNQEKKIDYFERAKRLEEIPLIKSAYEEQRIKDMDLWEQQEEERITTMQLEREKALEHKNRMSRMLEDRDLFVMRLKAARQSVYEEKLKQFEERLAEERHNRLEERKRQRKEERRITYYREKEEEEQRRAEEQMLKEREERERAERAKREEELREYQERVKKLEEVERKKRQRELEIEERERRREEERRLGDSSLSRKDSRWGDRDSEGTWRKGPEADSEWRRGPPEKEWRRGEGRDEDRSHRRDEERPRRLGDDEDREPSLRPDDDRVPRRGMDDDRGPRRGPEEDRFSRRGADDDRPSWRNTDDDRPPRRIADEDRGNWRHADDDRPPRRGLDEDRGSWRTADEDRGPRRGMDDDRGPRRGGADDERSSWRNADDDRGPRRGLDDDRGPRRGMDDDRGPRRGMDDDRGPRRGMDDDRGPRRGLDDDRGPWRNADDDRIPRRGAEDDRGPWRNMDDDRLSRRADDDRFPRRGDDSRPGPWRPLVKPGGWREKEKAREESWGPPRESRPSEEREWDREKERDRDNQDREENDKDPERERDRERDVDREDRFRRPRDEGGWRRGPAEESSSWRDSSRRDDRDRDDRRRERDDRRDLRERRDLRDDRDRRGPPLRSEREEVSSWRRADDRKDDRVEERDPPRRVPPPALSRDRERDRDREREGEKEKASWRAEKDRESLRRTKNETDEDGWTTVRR
UniProt P60981: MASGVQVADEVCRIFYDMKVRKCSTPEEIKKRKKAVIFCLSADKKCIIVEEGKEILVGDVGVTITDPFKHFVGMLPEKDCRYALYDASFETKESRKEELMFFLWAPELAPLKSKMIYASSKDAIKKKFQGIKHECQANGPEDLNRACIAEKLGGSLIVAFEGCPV
UniProt Q9UBQ5, 177-199: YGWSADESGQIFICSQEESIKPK
UniProt Q9H8V3: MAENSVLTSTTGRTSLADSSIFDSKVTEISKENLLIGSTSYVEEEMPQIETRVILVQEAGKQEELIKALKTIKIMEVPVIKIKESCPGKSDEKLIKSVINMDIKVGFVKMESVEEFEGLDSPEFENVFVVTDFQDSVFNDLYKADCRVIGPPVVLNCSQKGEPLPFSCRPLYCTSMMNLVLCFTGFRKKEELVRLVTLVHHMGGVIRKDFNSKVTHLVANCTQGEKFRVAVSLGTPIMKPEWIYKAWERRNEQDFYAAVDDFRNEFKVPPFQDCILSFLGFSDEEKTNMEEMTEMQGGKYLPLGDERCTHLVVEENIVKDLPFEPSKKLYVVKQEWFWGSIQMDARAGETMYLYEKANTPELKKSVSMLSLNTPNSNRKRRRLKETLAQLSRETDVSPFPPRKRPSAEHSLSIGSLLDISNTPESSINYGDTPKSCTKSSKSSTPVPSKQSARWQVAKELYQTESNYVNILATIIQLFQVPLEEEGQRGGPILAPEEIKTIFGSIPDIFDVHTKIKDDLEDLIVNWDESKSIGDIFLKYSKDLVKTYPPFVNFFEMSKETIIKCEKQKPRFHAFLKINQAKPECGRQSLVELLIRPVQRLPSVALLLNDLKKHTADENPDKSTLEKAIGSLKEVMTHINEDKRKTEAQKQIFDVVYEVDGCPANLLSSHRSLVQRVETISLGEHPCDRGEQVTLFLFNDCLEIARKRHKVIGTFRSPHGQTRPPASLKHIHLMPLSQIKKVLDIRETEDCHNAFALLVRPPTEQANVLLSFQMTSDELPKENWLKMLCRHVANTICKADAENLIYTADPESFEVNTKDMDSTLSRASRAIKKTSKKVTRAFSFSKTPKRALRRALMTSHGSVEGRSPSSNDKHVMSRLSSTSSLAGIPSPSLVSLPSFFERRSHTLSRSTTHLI
UniProt Q8N5X7: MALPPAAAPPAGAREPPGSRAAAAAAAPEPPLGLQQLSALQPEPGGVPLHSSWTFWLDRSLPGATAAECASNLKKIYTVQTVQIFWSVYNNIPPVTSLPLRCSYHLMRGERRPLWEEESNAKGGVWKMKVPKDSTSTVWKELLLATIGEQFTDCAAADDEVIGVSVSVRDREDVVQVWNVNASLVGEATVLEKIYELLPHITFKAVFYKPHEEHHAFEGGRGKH

What follows are targets tested with ClCC(=O)N[C@H]1CCCc2ccccc12 (assay: log2 mean competition ratio of IA-DTB cysteine labelling (DMSO/compound) (log2 ratio); higher = stronger cysteine engagement by compound). Details: 50 µM; treatment time: 4 h; cell line lysate: HEK293T.
Experimental: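 IA-DTB competitive cysteine chemoproteomics in HEK293T RIPA lysate. Lysates were treated with compound 29 or 30 at 50 or 200 µM for 4 h, then IA-DTB (500 µM, 1 h), trypsin-digested, NeutrAvidin-enriched and analysed by diaPASEF. Competition ratio = intensity DMSO / intensity compound (n=4 treated, n=64 DMSO); binding: mean log2 CR ≥ 1 and p ≤ 0.05 plus QC filters. Target is the cysteine site.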

Row | Target | log2 mean competition ratio
1 | DSC2 C841 (UniProt Q02487) | -0.25
2 | ELL C14 (UniProt P55199) | 0.376
3 | ELL2 C308 | -0.229
4 | DSP C1148 (UniProt P15924) | -0.111
5 | EIF2A C306 (UniProt Q9BY44) | 0.17
6 | EIF3A C58 (UniProt Q14152) | -0.884
7 | DSTN C80 (UniProt P60981) | -0.484
8 | EIF4G3 C340 | 0.832
9 | DYNC1H1 C2712 (UniProt Q14204) | 0.538
10 | DSC3 C57 | -0.294
11 | DUS2 C475 (UniProt Q9NX74) | -0.146
12 | DST C4370 (UniProt Q03001) | -0.165
13 | EEF2 C693 (UniProt P13639) | -0.329
14 | EFNB1 C314 (UniProt P98172) | 0.0334
15 | EIF3K C190 (UniProt Q9UBQ5) | 0.884
16 | ECT2 C796 (UniProt Q9H8V3) | 0.0128
17 | EIF4E3 C69 (UniProt Q8N5X7) | -0.458
18 | DTX3L C219 (UniProt Q8TDB6) | 0.0406
19 | DSP C2656 (UniProt P15924) | -0.385
20 | EFTUD2 C166 (UniProt Q15029) | -0.224

Same assay, conditions: 200 µM; treatment time: 4 h; cell line lysate: HEK293T

Row | Target | log2 mean competition ratio
21 | DSC2 C841 (UniProt Q02487) | -0.0835
22 | ELL C14 (UniProt P55199) | 0.0998
23 | ELL2 C308 | 0.115
24 | DSP C1148 (UniProt P15924) | 0.229
25 | EIF2A C306 (UniProt Q9BY44) | -0.0294
26 | EIF3A C58 (UniProt Q14152) | -0.0863
27 | DSTN C80 (UniProt P60981) | -0.385
28 | EIF4G3 C340 | -0.261
29 | DYNC1H1 C2712 (UniProt Q14204) | -0.116
30 | DSC3 C57 | -0.119
31 | DUS2 C475 (UniProt Q9NX74) | 0.166
32 | DST C4370 (UniProt Q03001) | -0.224
33 | EEF2 C693 (UniProt P13639) | 0.296
34 | EFNB1 C314 (UniProt P98172) | -0.065
35 | EIF3K C190 (UniProt Q9UBQ5) | -0.382
36 | ECT2 C796 (UniProt Q9H8V3) | -0.046
37 | EIF4E3 C69 (UniProt Q8N5X7) | -0.289
38 | DTX3L C219 (UniProt Q8TDB6) | 0.176
39 | DSP C2656 (UniProt P15924) | -0.352
40 | EFTUD2 C166 (UniProt Q15029) | -0.0844
